# Results as given in US6512102.
# Protein sequences, listed by entry. Tags and fused reporters are not part of them. Lines headed by an entry give the natural chain unless they say otherwise; changes in a name come on top.
# UniProt P49841: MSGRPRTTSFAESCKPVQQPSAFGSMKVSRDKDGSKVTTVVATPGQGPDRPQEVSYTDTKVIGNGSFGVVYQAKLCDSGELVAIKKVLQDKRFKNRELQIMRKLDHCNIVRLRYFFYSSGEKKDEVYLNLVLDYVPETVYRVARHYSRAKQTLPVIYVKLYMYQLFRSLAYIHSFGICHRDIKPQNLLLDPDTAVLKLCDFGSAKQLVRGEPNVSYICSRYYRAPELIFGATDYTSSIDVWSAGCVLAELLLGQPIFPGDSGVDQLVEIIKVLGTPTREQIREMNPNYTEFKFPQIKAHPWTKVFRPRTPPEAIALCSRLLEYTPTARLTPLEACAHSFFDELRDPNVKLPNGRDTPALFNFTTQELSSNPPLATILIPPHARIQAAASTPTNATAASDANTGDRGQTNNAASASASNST
# UniProt Q9JMK2: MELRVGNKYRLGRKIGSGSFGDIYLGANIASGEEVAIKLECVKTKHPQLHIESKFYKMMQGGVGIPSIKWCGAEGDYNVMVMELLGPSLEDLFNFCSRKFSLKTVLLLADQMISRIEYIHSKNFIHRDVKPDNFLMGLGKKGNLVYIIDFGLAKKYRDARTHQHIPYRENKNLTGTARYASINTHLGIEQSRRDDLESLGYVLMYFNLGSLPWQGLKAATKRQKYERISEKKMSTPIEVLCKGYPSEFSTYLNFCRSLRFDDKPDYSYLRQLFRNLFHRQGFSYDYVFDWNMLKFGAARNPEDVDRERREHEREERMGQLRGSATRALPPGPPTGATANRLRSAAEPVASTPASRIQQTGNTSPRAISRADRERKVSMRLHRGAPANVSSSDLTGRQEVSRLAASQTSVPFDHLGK
# These are yes or no findings as the source states them, for the method shown. In cells and extracts the contact can be indirect. Some binding calls cover weakened binding; strength is not graded here.
# Assays:
# GSK3 (huGSK3myc) (human) [1] = molecular target: GSK3 (huGSK3myc) (human) (UniProt P49841); assay: co-immunoprecipitation from cells cotransfected with CKIε and GSK3
# GSK3 (huGSK3myc) (human) [2] = molecular target: GSK3 (huGSK3myc) (human) (UniProt P49841); assay: interaction in vivo (co-immunoprecipitation from transfected cells)
substance,measurement,setting,value
"mouse casein kinase I epsilon, HA-tagged (CKIε-HA) (from UniProt Q9JMK2 1-416) (enzyme)",binding,GSK3 (huGSK3myc) (human) [1],binds
same,binding,GSK3 (huGSK3myc) (human) [2],binds
